35 molecules from the supplement of paper PMC7024190 can be followed below.

Where a name gives a salt, the structure may show the parent alone. Some of the results follow. Repeats in this data set agree poorly, so a single value says little.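 Human embryonic kidney cells were transiently transfected with a plasmid bearing a Renilla luciferase gene under the HSV-TK promoter. This first-round screen tests roughly ten thousand compounds for ones that increase reporter output.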

The test system of the test is HEK 293FT. The experiment in a line: log relative Renilla luciferase luminescence (reporter expression vs reference, reference not stated) (log (base not stated)); higher = higher recombinant reporter expression. To be noted: 10 µM; time after transfection 48 h.
As to `CC1(C)CCC(C)(C)c2cc(C3(c4ccc(C(=O)O)cc4)OCCO3)ccc21`, the log is -0.527.

For the molecule `COC(=O)[C@@H]1CC2=CC(=O)CC[C@]2(C)[C@@]23O[C@@H]2C[C@@]2(C)[C@@H](CC[C@@]24CCC(=O)O4)[C@H]13` [Eplerenone], the log is -0.0681. Turning to `COC(=O)C1=C(C)NC(C)=C(C(=O)OCCCN2CCC(c3ccccc3)(c3ccccc3)CC2)[C@@H]1c1cccc([N+](=O)[O-])c1` [(R)-(-)-Niguldipine hydrochloride], the log came out at 0.0854. Turning to `CCOC(=O)[C@H](CCc1ccccc1)N[C@H]1CCc2ccccc2N(CC(=O)O)C1=O` [Benazepril hydrochloride], the log was -0.0206. Then `CC(=O)O[C@H]1C(=O)[C@@]2(C)[C@H]([C@H](OC(=O)c3ccccc3)[C@]3(O)C[C@H](OC(=O)[C@H](O)[C@@H](NC(=O)c4ccccc4)c4ccccc4)C(C)=C1C3(C)C)[C@]1(OC(C)=O)CO[C@@H]1C[C@@H]2O` [Taxol], with 0.114; and `CCc1c2c(nc3ccc(O)cc13)-c1cc3c(c(=O)n1C2)COC(=O)[C@]3(O)CC`, with -0.952. Next, `CC(=O)N(O)[C@@H]1c2cc(C#N)ccc2OC(C)(C)[C@H]1O`: 0.113.

In the case of `Cn1ccc2cc3c(cc21)CCN3C(=O)Nc1cccnc1`, the log worked out at 0.03. Then `CCCCCCN(CCCCCC)C(=O)Cc1c(-c2ccc(F)cc2)[nH]c2ccccc12`, with -0.0524; and `CC(C(O)c1ccc(O)cc1)N1CCC(Cc2ccccc2)CC1` (stereo not given) [Ifenprodil hemitartrate], with -0.044; and `Cc1ccc(OCC(O)C(C)NC(C)C)c2c1CCC2` (stereo not given) [ICI-118,551 hydrochloride], with 0.0692. On to `C=C1/C(=C\C=C2/CCC[C@]3(C)[C@@H]([C@H](C)/C=C/[C@@H](O)C4CC4)CC[C@@H]23)C[C@@H](O)C[C@@H]1O` [Calcipotriol], for which the log was -0.0475. Next, `OC(CNCC(O)C1CCc2cc(F)ccc2O1)C1CCc2cc(F)ccc2O1` (stereo not given) [Nebivolol hydrochloride]: -0.041; `CC(C)NC[C@H](O)COc1cccc2[nH]ccc12` [(S)-(-)-Pindolol]: -0.0209.

On to `N[C@H](C(=O)O)c1ccc(O)c(C(=O)O)c1` [(S)-3-Carboxy-4-hydroxyphenylglycine], for which the log is -0.00867. As for `Oc1ccc(C2CNCCc3c2cc(O)c(O)c3Cl)cc1` (stereo not given) [Fenoldopam hydrochloride], the log came to 0.141. As to `CC(C)[N+]1(C)[C@@H]2CC[C@H]1C[C@@H](OC(=O)C(CO)c1ccccc1)C2` (stereo not given in full) [Ipratropium bromide], the log was -0.0572.

Regarding `CCOc1ccccc1OC(c1ccccc1)C1CNCCO1` (stereo not given) [Reboxetine mesylate], the log worked out at 0.0677. Regarding `COc1cc(N)c(Cl)cc1C(=O)CCC1CCN(CCNS(C)(=O)=O)CC1`, the log worked out at 0.0525. Take `COc1cc2ncnc(Nc3ccc(F)c(Cl)c3)c2cc1OCCCN1CCOCC1` [Iressa]: the log is -0.0332. Consider `C=CCNC(=O)c1cc([N+](=O)[O-])cc2c(=O)[nH]c(Nc3ccc(Cl)c(Cl)c3)nc12`, for which the log was determined as 0.0106. Next, `N[C@@H](Cc1cc(-c2ccc(Cl)cc2Cl)cc(CP(=O)(O)O)c1O)C(=O)O`: 0.00106. `CCCCc1nc2ccn(Cc3cccs3)c(=O)c2n1Cc1ccc(-c2ccccc2-c2nn[nH]n2)cc1`: the log amounted to 0.0438. Then `CN1CC2c3ccccc3Oc3ccc(Cl)cc3C2C1` (stereo not given) [Asenapine maleate], with -0.0734; and `CC12CC3CC(C)(C1)CC(N)(C3)C2` [Memantine hydrochloride], with 0.023. Then `CCN1CCC[C@H]1CNC(=O)c1c(OC)ccc(Br)c1OC` [Remoxipride hydrochloride], with 0.0591. As to `CNCCC(Oc1ccccc1OC)c1ccccc1` (stereo not given) [Nisoxetine hydrochloride], the log amounted to 0.0701.

As to `CSc1cc2c(cc1C(F)(F)F)N(C(=O)Nc1cccnc1)CC2`, the log was -0.0684. Next, `COC(=O)[C@H](NC(=O)c1cc(-c2ccccc2)nc2ccccc12)c1ccccc1`: 0.0158; `O=C(NCCCN1CCCCCC1)C(c1ccccc1)C1CCCCC1` (stereo not given): -0.0969; `COc1ccc(Cl)cc1NC(=O)Nc1cc(C)nc2ccccc12`: -0.0206. For the molecule `O=C(NCCN1CCCCC1)c1ccc(I)cc1` [N-[2-(Piperidinylamino)ethyl]-4-iodobenzamide], the log was determined as 0.00743. Next, `CC(=N)NCCCC[C@H](N)C(=O)O` [L-NIL hydrochloride]: 0.03; `O=C(O)c1cc(=O)c2ccccc2[nH]1` [Kynurenic acid]: -0.302. Regarding `CC[N+](CC)(CC)CC(=O)Nc1c(C)cccc1C` [QX 314 bromide], the log worked out at 0.119.
